The list is a part of this screen's results and no random one: it gathers tests that were run many times, whatever their T/C, doses with no T/C, and many T/C values between a quarter and a half above the control. Further doses and runs are listed elsewhere. T/C is the treated group as % of the vehicle group. Some entries give survivors of the animals treated and no T/C: the source files T/C as zero there, which appears to mark a toxic dose or a test without result, not a measured value. Some doses without a T/C left all or most animals alive at the check, yet need not have been tolerated: survival well below the control is almost never listed, so the zero probably covers shortened survival too. Counts of survivors are from the toxicity check (mostly the fifth day) where no day follows; animals may have died later. Schedule codes are those of the source, taken here to give the interval after Q, in days (D) or hours (H), and the number of doses after X. Some schedules carry Z or #; the key to these is not given. Some structures stand for samples that the source files as different forms (salt, stereo form or complex); doses refer to the form tested. Marks such as (2×) say how often a value occurs here. Some entries hold several experiments; their values stand side by side, smallest first. Where survival is the endpoint, this PubChem deposit counts one and a half times the control or more as active, and values a quarter to a half above the control carry no call in these data; other NCI protocols may use other cut-offs. Some T/C values are followed by the survivors on the day toxicity was checked, most often the fifth; without a count, all were alive then.
Test system: L1210 leukemia ip in BDF1 mice, survival T/C
Assay: NCI In Vivo Anticancer Drug Screen. Data for tumor model L1210 Leukemia (intraperitoneal) in B6D2F1 (BDF1) mice
Settings: T/C endpoint: mean survival time, higher T/C = longer survival
[1] = dose: 100.0 mg/kg/injection, schedule: Q01DX001 (ip), vehicle: saline
[2] = dose: 200.0 mg/kg/injection, schedule: Q01DX001 (ip), vehicle: saline
[3] = dose: 300.0 mg/kg/injection, schedule: Q01DX001 (ip), vehicle: saline
[4] = dose: 200.0 mg/kg/injection, schedule: Q01DX009 (ip), vehicle: Klucel (hydroxypropylcellulose) (HPC)
[5] = dose: 400.0 mg/kg/injection, schedule: Q01DX009 (ip), vehicle: Klucel (hydroxypropylcellulose) (HPC)
[6] = dose: 250.0 mg/kg/injection, schedule: Q01DX Z (ip), vehicle: carboxymethylcellulose (CMC)
[7] = dose: 500.0 mg/kg/injection, schedule: Q01DX Z (ip), vehicle: carboxymethylcellulose (CMC)
[8] = dose: 400.0 mg/kg/injection, schedule: Q04DX002 (ip), vehicle: saline
[9] = dose: 40.0 mg/kg/injection, schedule: Q01DX001 (ip), vehicle: saline
[10] = dose: 80.0 mg/kg/injection, schedule: Q01DX001 (ip), vehicle: saline
[11] = dose: 400.0 mg/kg/injection, schedule: Q04DX003 (ip), vehicle: saline
[12] = dose: 400.0 mg/kg/injection, schedule: Q04DX002 (ip), vehicle: Klucel (hydroxypropylcellulose) (HPC)

SMILES: Cc1[nH]nc(C(N)=O)c1N=NN(C)C
- T/C (dose: 19.0 mg/kg/injection, schedule: Q01DX009 (ip), vehicle: saline): 138 % of control
- T/C (dose: 38.0 mg/kg/injection, schedule: Q01DX009 (ip), vehicle: saline): 148 % of control
- T/C (dose: 50.0 mg/kg/injection, schedule: Q01DX001 (ip), vehicle: saline): 131 % of control
- T/C [1]: 143 % of control
- survivor count (dose: 100.0 mg/kg/injection, schedule: Q01DX009 (ip), vehicle: saline): 6 of 6
- T/C (dose: 135.0 mg/kg/injection, schedule: Q01DX001 (ip), vehicle: saline): 137 % of control
- T/C [2]: 133 % of control
- survivor count (dose: 200.0 mg/kg/injection, schedule: Q01DX009 (ip), vehicle: saline): 0 of 6
- T/C [3]: 130 [5 of 6 alive], 134 [4 of 6 alive], 137 % of control [4 of 6 alive]
- survivor count (dose: 400.0 mg/kg/injection, schedule: Q01DX009 (ip), vehicle: saline): 0 of 6
- survivor count (dose: 500.0 mg/kg/injection, schedule: Q01DX001 (ip), vehicle: saline): 0 of 6

SMILES: O=C(CCl)Nc1ccc(N=Nc2ccccc2)cc1
- survivor count (dose: 100.0 mg/kg/injection, schedule: Q01DX009 (ip), vehicle: Klucel (hydroxypropylcellulose) (HPC)): 3 of 6
- survivor count [4]: 2 of 6
- survivor count [5]: 0 of 6

SMILES: Brc1ncnc2nc[nH]c12
- T/C (dose: 150.0 mg/kg/injection, schedule: Q01DX Z (ip), vehicle: carboxymethylcellulose (CMC)): 128 % of control
- T/C [6]: 137 % of control
- T/C (dose: 300.0 mg/kg/injection, schedule: Q01DX Z (ip), vehicle: carboxymethylcellulose (CMC)): 129 % of control
- T/C [7]: 125 % of control
- survivor count (dose: 600.0 mg/kg/injection, schedule: Q01DX Z (ip), vehicle: carboxymethylcellulose (CMC)): 3 of 6

SMILES: CCCCCCCN1CCCC(OC(=O)N(C)C)C1 (stereo unspecified)
- survivor count (dose: 200.0 mg/kg/injection, schedule: Q04DX002 (ip), vehicle: saline): 1 of 3
- survivor count [8]: 0 of 3

SMILES: O=C(NCCCCCCCCCNC(=O)Nc1ccc(C2=NCCN2)cc1)Nc1ccc(C2=NCCN2)cc1
- survivor count [6]: 4 of 6
- survivor count [7]: 0 of 6

SMILES: O=C(Nc1ccc(Cl)c(C(F)(F)F)c1)Oc1cccnc1
- survivor count (dose: 50.0 mg/kg/injection, schedule: Q01DX009 (ip), vehicle: Klucel (hydroxypropylcellulose) (HPC)): 6 of 6
- survivor count [4]: 2 of 6
- survivor count [5]: 0 of 6

SMILES: CC1=Nc2ccccc2NC(C)(C)C1
- survivor count [8]: 3 of 3

SMILES: N#CC1=C(C#N)C(=O)C(c2ccccc2)=C(c2ccccc2)C1=O
- survivor count [9]: 1 of 4
- survivor count [10]: 0 of 4
- survivor count [1]: 0 of 4
- survivor count [2]: 0 of 4
- survivor count (dose: 400.0 mg/kg/injection, schedule: Q01DX001 (ip), vehicle: saline): 0 of 4

SMILES: N#CN1CC(C(=O)N2CCCCC2)C=C2c3cccc4[nH]cc(c34)CC21 (stereo unspecified)
- survivor count (dose: 2.0 mg/kg/injection, schedule: Q04DX003 (ip), vehicle: saline): 6 of 6
- survivor count (dose: 32.0 mg/kg/injection, schedule: Q04DX003 (ip), vehicle: saline): 3 of 6
- survivor count (dose: 100.0 mg/kg/injection, schedule: Q04DX003 (ip), vehicle: saline): 1 of 6
- survivor count (dose: 200.0 mg/kg/injection, schedule: Q04DX003 (ip), vehicle: saline): 0 of 6
- survivor count [11]: 0 of 6

SMILES: C=CC[N+](CC=C)(CC=C)C/C=C/C[N+](CC=C)(CC=C)CC=C
- survivor count (dose: 50.0 mg/kg/injection, schedule: Q01DX009 (ip), vehicle: water): 3 of 6
- survivor count (dose: 100.0 mg/kg/injection, schedule: Q01DX009 (ip), vehicle: water): 0 of 6
- survivor count (dose: 100.0 mg/kg/injection, schedule: Q04DX003 (ip), vehicle: water): 0 of 6
- survivor count (dose: 200.0 mg/kg/injection, schedule: Q01DX009 (ip), vehicle: water): 0 of 6
- survivor count (dose: 200.0 mg/kg/injection, schedule: Q04DX003 (ip), vehicle: water): 0 of 6
- survivor count (dose: 400.0 mg/kg/injection, schedule: Q04DX003 (ip), vehicle: water): 0 of 6

SMILES: CCOC(=O)C1(NC(=O)N(CCCl)N=O)CCCCC1
- T/C (dose: 62.0 mg/kg/injection, schedule: Q01DX001 (ip), vehicle: other): 126 and 144 % of control

SMILES: Nc1ccc(-c2ccc(N)c(Br)c2)cc1Br
- survivor count [12]: 3 of 3

SMILES: CCOP(=O)(Oc1ccc([N+](=O)[O-])cc1)c1cccc(Cl)c1 (stereo unspecified)
- survivor count (dose: 20.0 mg/kg/injection, schedule: Q01DX001 (ip), vehicle: saline): 0 of 6
- survivor count [9]: 0 of 6
- survivor count [10]: 0 of 6

SMILES: C=C(C)CC#N
- survivor count [11]: 5 of 6

SMILES: CC12C(=O)OC(=O)C1C1C=CC2C1 (stereo unspecified)
- survivor count [12]: 1 of 3
- survivor count (dose: 400.0 mg/kg/injection, schedule: Q04DX003 (ip), vehicle: other): 2 of 6

SMILES: CC(C)NP(=O)(NC(C)C)OC1CC(C)(C)N(O)C(C)(C)C1
- survivor count (dose: 100.0 mg/kg/injection, schedule: Q01DX001 (ip), vehicle: water): 1 of 3
- survivor count (dose: 200.0 mg/kg/injection, schedule: Q01DX001 (ip), vehicle: water): 0 of 3

SMILES: CC1=CC(C)(N=[N+]=[N-])CC(C)(C)C1 (stereo unspecified)
- survivor count [3]: 0 of 6

SMILES: CC1CN=C(c2ccc(NC(=O)c3ccc(NC(=O)c4ccc(C5=NCC(C)N5)cc4)cc3)cc2)N1 (stereo unspecified)
- survivor count (dose: 15.0 mg/kg/injection, schedule: Q01DX Z (ip), vehicle: other): 2 of 6
- survivor count (dose: 30.0 mg/kg/injection, schedule: Q01DX Z (ip), vehicle: other): 0 of 6
- survivor count (dose: 60.0 mg/kg/injection, schedule: Q01DX Z (ip), vehicle: other): 0 of 6
- survivor count (dose: 120.0 mg/kg/injection, schedule: Q01DX Z (ip), vehicle: other): 0 of 6

SMILES: C=C(C)C1(Cc2ccccc2)C(=O)NC(=O)NC1=O
- survivor count (dose: 75.0 mg/kg/injection, schedule: Q01DX001 (ip), vehicle: saline): 1 of 6
- survivor count (dose: 150.0 mg/kg/injection, schedule: Q01DX001 (ip), vehicle: saline): 0 of 6 and 2 of 6
- survivor count [3]: 0 of 6 (2×)

Source: PubChem BioAssay AID248 (DTP/NCI, 2004)
